Hit rate of the full screen: of about 390,000 compounds, about 4,000 (1%) were called active. Inconclusive results, whose numbers are uncertain, are shown with a selection of clear calls. Calls come from the whole dose curve; as a rule, active = well fitted inhibition curve with a large enough effect; inconclusive = small, poorly fitted or top-dose-only effect, or another doubt; inactive = no such curve, though single readings can be large or run the other way. Potencies beside an inconclusive call are fits to weak or partial responses and may not hold up.
Target: DNA polymerase iota (Homo sapiens) (UniProt Q9UNA4)
Experiment: qHTS for Inhibitors of Polymerase Iota
Details: Pol iota fluorescent replication assay, 10 min; series mostly up to 115 µM
Summary of the method: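 Fluorescent replication assay read twice, at 0 min and 10 min after adding 50 nM (final) substrate. Enzyme (10 nM) and compounds were first incubated 15 min at room temperature; enzyme-free buffer wells were negative controls.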
Potency is the fitted concentration of half-maximal effect.

The chains behind the UniProt entries cited, without tags or fusion partners. Where a name states a change or a piece, a line headed by the entry shows the natural chain unless it says otherwise.
UniProt Q9UNA4: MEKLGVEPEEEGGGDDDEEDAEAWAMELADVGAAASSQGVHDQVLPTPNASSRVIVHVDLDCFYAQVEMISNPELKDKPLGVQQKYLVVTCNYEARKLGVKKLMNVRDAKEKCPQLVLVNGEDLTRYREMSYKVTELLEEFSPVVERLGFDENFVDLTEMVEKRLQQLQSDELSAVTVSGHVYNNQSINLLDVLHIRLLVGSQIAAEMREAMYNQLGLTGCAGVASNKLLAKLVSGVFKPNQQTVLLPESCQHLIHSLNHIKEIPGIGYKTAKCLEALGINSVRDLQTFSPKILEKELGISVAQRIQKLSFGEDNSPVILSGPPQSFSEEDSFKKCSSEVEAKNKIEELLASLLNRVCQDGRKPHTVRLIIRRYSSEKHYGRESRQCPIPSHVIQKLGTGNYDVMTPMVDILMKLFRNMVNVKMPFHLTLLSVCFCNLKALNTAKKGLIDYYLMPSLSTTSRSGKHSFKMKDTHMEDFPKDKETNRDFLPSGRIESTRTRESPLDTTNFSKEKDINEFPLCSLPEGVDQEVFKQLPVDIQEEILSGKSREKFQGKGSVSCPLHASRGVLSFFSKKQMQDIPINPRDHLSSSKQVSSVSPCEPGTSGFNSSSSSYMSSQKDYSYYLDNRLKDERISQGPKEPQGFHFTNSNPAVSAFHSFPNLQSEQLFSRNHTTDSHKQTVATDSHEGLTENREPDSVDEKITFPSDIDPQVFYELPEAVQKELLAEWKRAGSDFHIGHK

| SMILES | Potency |
| --- | --- |
| CCCc1[nH]nc2c1C(c1ccc(OC)c(Cn3nnc4ccccc43)c1)C(C#N)=C(N)O2 (stereo not given) | inconclusive: 79.4 µM [inhibitor, partial curve, poor fit] |
| C[N+](C)(C)CCOC(=O)CBr | inconclusive: 0.316 µM [inhibitor, full curve, poor fit] |
| OC(COCc1ccc(Cl)cc1)CN1CC=C(c2ccccc2)CC1 (stereo not given) | inconclusive: 25.1 µM [inhibitor, partial curve, poor fit] |
| O=c1[nH]c(O)c(/C=C2\C=NN=C2c2ccccc2)c(=O)[nH]1 | inconclusive: 5.62 µM [inhibitor, full curve, poor fit] |
| COC(=O)COc1ccc(/C=C2\C(=O)NC(=S)N(c3ccc(C)cc3)C2=O)cc1OC | inconclusive: 25.1 µM [inhibitor, single point] |
| NCCc1c[nH]c2ccc(OCc3ccccc3)cc12 | inactive |
| CCC1(c2ccccc2)C(=O)N(COC)C(=O)N(COC)C1=O | inconclusive: 100 µM [inhibitor, single point] |
| O=S(=O)(Nc1c(O)ccc2ccccc12)c1ccc(F)cc1 | inconclusive: 39.8 µM [inhibitor, single point] |
| O=C(Cc1cc(=O)[nH][nH]1)N/N=C/c1cccc2ccccc12 | inconclusive: 7.08 µM [inhibitor, full curve, poor fit] |
| CCOP(=O)(OCC)C(O)c1ccc2c(c1)OCO2 (stereo not given) | inactive |
| O=C1NC(=S)NC(=O)C1C/C=C/c1ccccc1 | inconclusive: 14.1 µM [inhibitor, partial curve, poor fit] |
| N#Cc1cc([N+](=O)[O-])ccc1NC(=O)c1cccn(Cc2cccc(F)c2)c1=O | inconclusive: 35.5 µM [inhibitor, partial curve, poor fit] |
| CC1=C(C(=O)O)N2C(=O)C(NC(=O)c3nn(C)cc3[N+](=O)[O-])C2SC1 (stereo not given) | inconclusive: 44.7 µM [inhibitor, partial curve, poor fit] |
| c1ccc(-c2nnc(C3CC(c4cccnc4)=NO3)o2)cc1 (stereo not given) | inconclusive: 35.5 µM [inhibitor, partial curve, poor fit] |
| Cc1cc2c(cc1C)NP(=S)(c1ccccc1)N2 | inconclusive: 22.4 µM [inhibitor, single point] |
| CC(C)CNC(=S)NC1CC2CCCC(C1)N2Cc1ccco1 (stereo not given) | inconclusive: 89.1 µM [inhibitor, single point] |
| Cc1cc(/C=C2\C(=O)NC(=O)N(Cc3ccccc3Cl)C2=O)c(C)n1-c1ccc(C(=O)O)cc1 | active: 8.91 µM |
| Clc1cccc(CN2CCCCC2c2cccnc2)c1 (stereo not given) | inconclusive: 79.4 µM [inhibitor, partial curve, poor fit] |
| O=c1c2ccccc2nc(-c2ccco2)n1-c1nccs1 | inconclusive: 112 µM [inhibitor, partial curve, poor fit] |
| CCOc1ccc(NC(=O)c2ccc(NC(=O)COC(=O)Cc3ccccc3)cc2)cc1 | inconclusive: 17.8 µM [inhibitor, partial curve, poor fit] |

| SMILES | Potency |
| --- | --- |
| CC1(C)NCCN2C(=O)CSC21 (stereo not given) | inconclusive: 39.8 µM [inhibitor, partial curve, poor fit] |
| Cn1c(=O)c2c(nc(N/N=C/c3c(O)n(-c4ccccc4)c(=S)[nH]c3=O)n2C)n(C)c1=O | inconclusive: 10 µM [inhibitor, partial curve, poor fit] |
| Cc1cc(/C=C2\C(=O)NC(=O)N(Cc3ccccc3)C2=O)c(C)n1-c1ccc(Cl)c(C(=O)O)c1 | active: 8.91 µM |
| Cc1cc(/C=C2/C(=O)NC(=O)N(Cc3ccco3)C2=O)c(C)n1-c1ccc(C(=O)O)cc1 | active: 14.1 µM |
| C/C(=N\N1CCN(C)CC1)c1c(O)[nH]c(=O)[nH]c1=O | inactive |
| CN1C(=O)NC(=O)/C(=C/c2ccc(C(=O)O)cc2)C1=O | inconclusive: 17.8 µM [inhibitor, partial curve, poor fit] |
| O=C(c1ccc2c(=O)n(Cc3ccc4c(c3)OCO4)c(=S)[nH]c2c1)N1CCC2(CC1)OCCO2 | inconclusive: 7.08 µM [inhibitor, partial curve, poor fit] |
| Cc1cccc(-n2c(O)c(/C=C3/C(c4ccccc4)=Nc4ccccc43)c(=O)[nH]c2=O)c1 | inconclusive: 12.6 µM [inhibitor, partial curve, poor fit] |
| CN1C(=O)C(C2(C#N)CCCCC2)C(=O)N(C)C1=O | inconclusive: 15.8 µM [inhibitor, partial curve, poor fit] |
| O=P1(c2ccccc2)Nc2ccccc2N1c1ccccc1 (stereo not given) | inconclusive: 17.8 µM [inhibitor, partial curve] |
| CCCCn1c(O)c(/C=N/NC(=O)c2ccncc2)c(=O)[nH]c1=O | inactive |
| CSc1ncc(/C=C2/C(=O)NC(=O)N(C)C2=O)cn1 | inactive |
| COc1cc2c(cc1O)C[C@H]1NCCc3cc4c(c-2c31)OCO4 | active: 14.1 µM |
| CCOc1cc(/C=C2\C(=O)NC(=O)N(CCc3ccc(F)cc3)C2=O)ccc1O | inconclusive: 12.6 µM [inhibitor, partial curve, poor fit] |
| Cc1ccccc1CNC(=O)c1ccc(-c2nc(CS(=O)(=O)c3ccccc3)c(C)o2)cc1 | inconclusive: 89.1 µM [inhibitor, single point] |
| CC(=O)OC1C2(CC3N4C(=O)C5(CO)SSC4(CC31O)C(=O)N5C)OC(C)C(C)(C)C2=O (stereo not given) | inconclusive: 39.8 µM [inhibitor, single point] |
| O=c1[nH]c(=O)n(Cc2ccccc2)c(O)c1C=NCCN1CCNCC1 | inconclusive: 70.8 µM [inhibitor, single point] |
| Cc1ccc(N2C(=O)NC(=O)/C(=C\c3ccc(N4CCOCC4)cc3)C2=O)cc1 | inactive |
| O=C(O)c1ccc(-n2c(O)c(/C=C3\C=Nc4ccccc43)c(=O)[nH]c2=O)cc1 | inconclusive: 17.8 µM [inhibitor, partial curve, poor fit] |
| COC(=O)c1sccc1NC(=O)c1ccc(C#N)cc1 | inconclusive: 8.91 µM [inhibitor, full curve, poor fit] |

Ten of these compounds, reformatted.
SMILES,Potency
CCCc1[nH]nc2c1C(c1ccc(OC)c(Cn3nnc4ccccc43)c1)C(C#N)=C(N)O2 (stereo not given),"inconclusive: 79.4 µM [inhibitor, partial curve, poor fit]"
OC(COCc1ccc(Cl)cc1)CN1CC=C(c2ccccc2)CC1 (stereo not given),"inconclusive: 25.1 µM [inhibitor, partial curve, poor fit]"
CCC1(c2ccccc2)C(=O)N(COC)C(=O)N(COC)C1=O,"inconclusive: 100 µM [inhibitor, single point]"
O=S(=O)(Nc1c(O)ccc2ccccc12)c1ccc(F)cc1,"inconclusive: 39.8 µM [inhibitor, single point]"
O=C(Cc1cc(=O)[nH][nH]1)N/N=C/c1cccc2ccccc12,"inconclusive: 7.08 µM [inhibitor, full curve, poor fit]"
CC(C)CNC(=S)NC1CC2CCCC(C1)N2Cc1ccco1 (stereo not given),"inconclusive: 89.1 µM [inhibitor, single point]"
Cc1cc(/C=C2\C(=O)NC(=O)N(Cc3ccccc3Cl)C2=O)c(C)n1-c1ccc(C(=O)O)cc1,active: 8.91 µM
Clc1cccc(CN2CCCCC2c2cccnc2)c1 (stereo not given),"inconclusive: 79.4 µM [inhibitor, partial curve, poor fit]"
CCCCn1c(O)c(/C=N/NC(=O)c2ccncc2)c(=O)[nH]c1=O,inactive
O=c1[nH]c(=O)n(Cc2ccccc2)c(O)c1C=NCCN1CCNCC1,"inconclusive: 70.8 µM [inhibitor, single point]"

— PubChem BioAssay AID588590 (National Center for Advancing Translational Sciences (NCATS), 2011)
